Data reported in the supplement of paper PMC8426693.
Some of the results follow.

Key:
Assay in all cases: NMR binding call after quantification (hit when 2 of 3 NMR criteria are met) (binary (1 = binding, 0 = not binding)); higher = binding
Conditions in all cases: RNA concentration 10 µM; fragment concentration 200 µM; 293 K
[1] = system: SARS-CoV-2 5_SL7 RNA
[2] = system: SARS-CoV-2 attenuator hairpin (att HP) RNA
[3] = system: SARS-CoV-2 frameshift pseudoknot (PK) RNA
[4] = system: SARS-CoV-2 5_SL8 RNA

SMILES: O=C(Nc1ccon1)c1cccc(Cl)c1
- NMR binding call [1]: 0
- NMR binding call [2]: 0
- NMR binding call [3]: 0

SMILES: c1ccc(NCC2CCNC2)nc1 (stereo unspecified)
- NMR binding call [1]: 1
- NMR binding call [3]: 1

SMILES: CC(C)(CO)NC(=O)Nc1ccc(Cl)cc1
- NMR binding call [1]: 0
- NMR binding call [3]: 0

SMILES: CCCc1nnc(NC(=O)c2ccccn2)s1
- NMR binding call [4]: 0
- NMR binding call [2]: 0
- NMR binding call [3]: 0

SMILES: CN(C)c1ccncc1
- NMR binding call [4]: 0
- NMR binding call [2]: 0

SMILES: CC(Oc1ccc(-c2ccccc2)cc1)C(=O)O (stereo unspecified)
- NMR binding call [1]: 0
- NMR binding call [2]: 0
- NMR binding call [3]: 0

SMILES: CC(N)c1ccc(-c2cncnc2)cc1 (stereo unspecified)
- NMR binding call [1]: 0
- NMR binding call [2]: 0
- NMR binding call [3]: 0

SMILES: Cl.NCc1cc(-c2ccccc2)no1
- NMR binding call [1]: 1
- NMR binding call [2]: 0
- NMR binding call [3]: 0

SMILES: Cc1ccc(CNC(=O)C2CCC2)cn1
- NMR binding call [1]: 0
- NMR binding call [3]: 0

SMILES: c1ccc2c(CN3CCCCCC3)c[nH]c2c1
- NMR binding call [4]: 0
- NMR binding call [2]: 0
- NMR binding call [3]: 0

SMILES: COc1ccc(Nc2ncnc3[nH]cnc23)cc1
- NMR binding call [1]: 0
- NMR binding call [2]: 0
- NMR binding call [3]: 0

SMILES: O=C(Nc1ccc(O)cc1)c1ccc(Cl)cc1
- NMR binding call [1]: 0
- NMR binding call [2]: 0
- NMR binding call [3]: 0

SMILES: NC(=O)c1ccc(NC(=O)c2cnccn2)cc1
- NMR binding call [1]: 0
- NMR binding call [2]: 0
- NMR binding call [3]: 0

SMILES: CNC(=O)c1ccccc1NC(=O)c1ccco1
- NMR binding call [4]: 1
- NMR binding call [2]: 0

SMILES: COc1ccc2[nH]cc(CN(C)C)c2c1
- NMR binding call [1]: 1
- NMR binding call [2]: 0
- NMR binding call [3]: 0

SMILES: O=C(Nc1ccc2[nH]c(=O)[nH]c2c1)c1ccco1
- NMR binding call [1]: 0
- NMR binding call [2]: 0
- NMR binding call [3]: 0

SMILES: CCS(=O)(=O)Nc1ccccc1F
- NMR binding call [1]: 0
- NMR binding call [2]: 0
- NMR binding call [3]: 0

SMILES: CC(CO)(CO)NC(=O)Nc1ccccc1
- NMR binding call [1]: 0
- NMR binding call [2]: 0
- NMR binding call [3]: 0

SMILES: O=C(Nc1ccc(F)cc1)Nc1cccc(O)c1
- NMR binding call [1]: 0
- NMR binding call [2]: 0
- NMR binding call [3]: 0

SMILES: CC(=O)c1ccc(NC(=O)CN2CCCC2)cc1
- NMR binding call [1]: 1
- NMR binding call [2]: 0
- NMR binding call [3]: 1

SMILES: Cc1cc(N2CCNCC2)nc(C)n1
- NMR binding call [4]: 0
- NMR binding call [2]: 0
- NMR binding call [3]: 0

SMILES: Cc1cc(C(=O)Nc2ccc3[nH]ccc3c2)no1
- NMR binding call [1]: 0
- NMR binding call [2]: 0
- NMR binding call [3]: 0

SMILES: CCCC(=O)Nc1nnn(CC)n1
- NMR binding call [1]: 0
- NMR binding call [2]: 0
- NMR binding call [3]: 0

SMILES: CC(C)Nc1cccnc1
- NMR binding call [4]: 0
- NMR binding call [2]: 0
- NMR binding call [3]: 0

SMILES: O=C(NCCc1ccncc1)NC1CCCCC1
- NMR binding call [1]: 0
- NMR binding call [3]: 0

SMILES: Cc1cc(C(=O)Nc2ccn(C)n2)on1
- NMR binding call [4]: 0
- NMR binding call [2]: 0
- NMR binding call [3]: 0

SMILES: c1cc(-c2ccc3c(c2)OCO3)n[nH]1
- NMR binding call [4]: 1
- NMR binding call [2]: 0
- NMR binding call [3]: 0

SMILES: Cc1ccc(-c2nc(N)sc2C)cc1C
- NMR binding call [1]: 0
- NMR binding call [2]: 0
- NMR binding call [3]: 0

SMILES: N#Cc1ccc(Cn2cnc3ccccc32)cc1
- NMR binding call [1]: 0
- NMR binding call [3]: 0

SMILES: CC(CO)N(C)c1ncc(Cl)cn1 (stereo unspecified)
- NMR binding call [1]: 0
- NMR binding call [2]: 0
- NMR binding call [3]: 0

SMILES: Oc1ccccc1CN1CCOCC1
- NMR binding call [1]: 0
- NMR binding call [2]: 0
- NMR binding call [3]: 0
